Drawing on publication PMC12679573, this text covers binding for two substances.

By UniProt entry, the sequences of proteins in these tests, tags left out. Where a name states a change or a piece, a line headed by the entry shows the natural chain unless it says otherwise. Residues count along the entry.
UniProt Q60932: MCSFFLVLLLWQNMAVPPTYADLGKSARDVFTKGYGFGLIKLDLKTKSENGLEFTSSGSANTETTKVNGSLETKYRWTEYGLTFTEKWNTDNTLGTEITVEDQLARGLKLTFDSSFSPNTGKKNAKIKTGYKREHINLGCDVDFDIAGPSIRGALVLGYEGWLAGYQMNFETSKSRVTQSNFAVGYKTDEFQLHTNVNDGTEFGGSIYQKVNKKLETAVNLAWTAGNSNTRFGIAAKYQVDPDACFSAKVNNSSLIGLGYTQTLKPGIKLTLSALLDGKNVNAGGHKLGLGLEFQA
UniProt P38647, residues 47-679: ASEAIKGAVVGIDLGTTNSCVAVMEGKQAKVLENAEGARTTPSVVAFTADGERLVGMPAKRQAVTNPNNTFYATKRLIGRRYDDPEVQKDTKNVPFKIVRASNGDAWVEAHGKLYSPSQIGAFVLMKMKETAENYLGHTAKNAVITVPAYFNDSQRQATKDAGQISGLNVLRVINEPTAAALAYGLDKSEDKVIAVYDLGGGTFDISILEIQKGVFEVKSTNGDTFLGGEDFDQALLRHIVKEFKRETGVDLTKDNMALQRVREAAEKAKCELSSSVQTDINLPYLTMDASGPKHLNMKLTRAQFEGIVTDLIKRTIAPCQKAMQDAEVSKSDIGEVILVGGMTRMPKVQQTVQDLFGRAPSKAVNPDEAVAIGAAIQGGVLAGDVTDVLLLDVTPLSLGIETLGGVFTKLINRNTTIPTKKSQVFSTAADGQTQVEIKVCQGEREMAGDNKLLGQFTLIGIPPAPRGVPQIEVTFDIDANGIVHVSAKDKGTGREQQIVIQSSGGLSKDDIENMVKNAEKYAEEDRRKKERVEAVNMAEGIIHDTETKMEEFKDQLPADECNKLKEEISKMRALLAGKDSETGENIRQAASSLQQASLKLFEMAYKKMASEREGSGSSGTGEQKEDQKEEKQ
UniProt P11881: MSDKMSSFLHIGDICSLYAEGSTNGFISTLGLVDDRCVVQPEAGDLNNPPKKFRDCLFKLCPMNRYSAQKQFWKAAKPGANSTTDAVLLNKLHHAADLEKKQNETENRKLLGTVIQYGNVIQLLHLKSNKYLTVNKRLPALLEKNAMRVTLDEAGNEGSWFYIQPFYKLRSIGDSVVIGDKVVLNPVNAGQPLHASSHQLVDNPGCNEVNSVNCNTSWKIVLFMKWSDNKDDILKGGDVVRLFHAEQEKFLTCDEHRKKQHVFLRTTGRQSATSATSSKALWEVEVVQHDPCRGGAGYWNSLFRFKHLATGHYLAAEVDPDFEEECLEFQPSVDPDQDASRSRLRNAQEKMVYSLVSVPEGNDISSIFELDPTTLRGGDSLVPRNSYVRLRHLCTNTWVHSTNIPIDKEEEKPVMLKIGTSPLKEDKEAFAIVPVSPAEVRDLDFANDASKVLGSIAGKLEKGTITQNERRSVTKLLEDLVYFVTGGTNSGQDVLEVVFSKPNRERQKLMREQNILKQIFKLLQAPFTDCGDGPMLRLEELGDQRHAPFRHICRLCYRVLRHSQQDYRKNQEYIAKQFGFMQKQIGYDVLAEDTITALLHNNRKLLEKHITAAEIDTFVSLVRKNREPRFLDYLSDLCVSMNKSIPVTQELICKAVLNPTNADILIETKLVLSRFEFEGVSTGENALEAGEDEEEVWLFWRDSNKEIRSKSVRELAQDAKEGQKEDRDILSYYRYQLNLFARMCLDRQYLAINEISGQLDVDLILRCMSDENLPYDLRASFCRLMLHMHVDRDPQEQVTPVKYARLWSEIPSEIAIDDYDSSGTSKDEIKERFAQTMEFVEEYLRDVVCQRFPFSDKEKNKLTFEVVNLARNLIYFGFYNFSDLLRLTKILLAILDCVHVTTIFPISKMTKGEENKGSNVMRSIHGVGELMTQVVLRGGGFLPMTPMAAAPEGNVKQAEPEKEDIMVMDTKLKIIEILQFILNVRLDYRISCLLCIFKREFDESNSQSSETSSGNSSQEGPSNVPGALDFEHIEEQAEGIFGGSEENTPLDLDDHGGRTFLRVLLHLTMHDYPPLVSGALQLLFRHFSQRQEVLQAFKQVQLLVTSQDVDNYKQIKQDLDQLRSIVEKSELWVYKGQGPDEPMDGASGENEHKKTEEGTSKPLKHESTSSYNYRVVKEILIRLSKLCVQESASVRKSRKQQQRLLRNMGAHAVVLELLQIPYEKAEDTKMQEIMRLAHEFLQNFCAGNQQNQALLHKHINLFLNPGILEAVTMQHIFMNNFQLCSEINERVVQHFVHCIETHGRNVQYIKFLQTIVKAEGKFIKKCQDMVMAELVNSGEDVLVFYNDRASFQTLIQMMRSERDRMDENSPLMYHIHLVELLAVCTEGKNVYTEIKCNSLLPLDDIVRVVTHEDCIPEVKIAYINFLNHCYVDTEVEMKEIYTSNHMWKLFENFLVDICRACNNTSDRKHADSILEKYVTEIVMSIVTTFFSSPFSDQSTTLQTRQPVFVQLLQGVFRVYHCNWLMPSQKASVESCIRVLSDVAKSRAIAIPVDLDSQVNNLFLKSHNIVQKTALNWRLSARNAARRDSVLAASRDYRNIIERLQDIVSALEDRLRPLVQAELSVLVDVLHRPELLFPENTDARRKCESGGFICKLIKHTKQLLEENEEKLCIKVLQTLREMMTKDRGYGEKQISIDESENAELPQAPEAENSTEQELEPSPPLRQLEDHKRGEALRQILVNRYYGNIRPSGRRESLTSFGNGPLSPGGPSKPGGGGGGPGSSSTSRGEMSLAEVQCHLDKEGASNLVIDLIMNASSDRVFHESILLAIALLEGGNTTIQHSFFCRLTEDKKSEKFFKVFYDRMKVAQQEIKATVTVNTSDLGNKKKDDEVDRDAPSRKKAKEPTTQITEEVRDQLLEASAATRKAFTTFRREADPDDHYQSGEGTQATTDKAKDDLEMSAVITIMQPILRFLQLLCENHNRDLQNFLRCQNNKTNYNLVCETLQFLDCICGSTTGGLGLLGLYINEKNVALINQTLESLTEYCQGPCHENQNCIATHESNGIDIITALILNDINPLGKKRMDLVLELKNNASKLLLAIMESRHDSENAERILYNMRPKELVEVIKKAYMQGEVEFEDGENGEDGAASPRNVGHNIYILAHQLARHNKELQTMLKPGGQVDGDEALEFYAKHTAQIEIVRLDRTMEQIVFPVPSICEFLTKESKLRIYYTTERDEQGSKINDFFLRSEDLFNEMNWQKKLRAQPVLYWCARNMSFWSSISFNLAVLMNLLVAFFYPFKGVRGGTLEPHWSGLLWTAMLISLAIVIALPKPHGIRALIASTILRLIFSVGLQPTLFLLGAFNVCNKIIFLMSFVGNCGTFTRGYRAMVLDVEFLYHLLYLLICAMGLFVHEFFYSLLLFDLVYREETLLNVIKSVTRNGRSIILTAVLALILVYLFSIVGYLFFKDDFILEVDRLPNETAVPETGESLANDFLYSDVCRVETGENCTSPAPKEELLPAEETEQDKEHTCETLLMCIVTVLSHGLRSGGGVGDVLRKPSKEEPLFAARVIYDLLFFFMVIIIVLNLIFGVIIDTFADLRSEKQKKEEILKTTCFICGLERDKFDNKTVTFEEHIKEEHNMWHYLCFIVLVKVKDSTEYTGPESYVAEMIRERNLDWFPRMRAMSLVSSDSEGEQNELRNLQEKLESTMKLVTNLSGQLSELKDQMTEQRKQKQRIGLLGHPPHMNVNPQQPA

Assay [1] concerns the target VDAC1 (mouse (endogenous in primary hepatocytes)) (UniProt Q60932). The assay is described as follows: proximity ligation; Duolink in situ PLA on fixed, permeabilised primary hepatocytes of WT, hKO and hKI mice after PHx; primary antibodies to VDAC1, GRP75, IP3R1; confocal microscopy.
Assay [2] has as its target GRP75 (mouse (endogenous in primary hepatocytes)) (UniProt P38647). The assay is described as above.

Results are given in words; binding and its absence hold for the method and conditions named. In cells and extracts the contact can be indirect. A result given as binding can be weak or reduced; the word gives no strength.

For “IP3R1 (from UniProt P11881 1-2749) (receptor)”, the binding result in assay [1] is reported as “binds”.

In the case of VDAC1 (from UniProt Q60932), the binding entry in assay [2] is “binds”.
